Results on one molecule are retold here after article doi:10.1101/2024.03.05.583565.

Sequences of proteins named here, by UniProt entry; tags and fusion partners are left off.
UniProt P28347: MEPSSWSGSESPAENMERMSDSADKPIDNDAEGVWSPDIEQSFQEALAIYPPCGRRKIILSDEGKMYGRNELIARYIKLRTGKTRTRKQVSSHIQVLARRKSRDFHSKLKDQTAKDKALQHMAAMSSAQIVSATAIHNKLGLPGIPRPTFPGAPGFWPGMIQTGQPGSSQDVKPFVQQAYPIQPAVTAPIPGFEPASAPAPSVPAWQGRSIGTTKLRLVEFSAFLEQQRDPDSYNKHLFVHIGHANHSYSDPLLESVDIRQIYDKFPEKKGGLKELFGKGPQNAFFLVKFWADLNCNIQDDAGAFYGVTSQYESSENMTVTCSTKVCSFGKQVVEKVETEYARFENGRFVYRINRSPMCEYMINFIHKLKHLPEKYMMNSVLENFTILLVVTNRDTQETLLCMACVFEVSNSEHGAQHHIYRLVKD
UniProt P46937: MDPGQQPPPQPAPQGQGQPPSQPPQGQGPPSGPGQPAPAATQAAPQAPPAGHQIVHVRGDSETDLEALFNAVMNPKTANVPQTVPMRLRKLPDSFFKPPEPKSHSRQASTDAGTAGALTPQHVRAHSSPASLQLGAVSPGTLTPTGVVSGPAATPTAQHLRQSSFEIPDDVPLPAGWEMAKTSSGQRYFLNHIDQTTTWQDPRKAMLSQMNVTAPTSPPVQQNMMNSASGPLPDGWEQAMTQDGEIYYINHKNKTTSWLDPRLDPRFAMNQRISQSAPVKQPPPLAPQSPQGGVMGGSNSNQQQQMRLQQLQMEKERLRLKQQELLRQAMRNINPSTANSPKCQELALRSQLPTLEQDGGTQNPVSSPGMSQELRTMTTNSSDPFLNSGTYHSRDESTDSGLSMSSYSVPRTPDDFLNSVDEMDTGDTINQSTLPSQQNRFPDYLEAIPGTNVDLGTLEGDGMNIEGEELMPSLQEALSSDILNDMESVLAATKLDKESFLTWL

No constants are given. Whether binding was seen depends on the method and setting. Binding seen in cells or lysates may run through a third protein.

The target of experiment [1] is TEAD1 (human (endogenous in OMM1.3 and UM004)) (UniProt P28347). The experiment can be described thus: co-IP.
Experiment [2] addresses YAP1 (human (endogenous in OMM1.3 and UM004)) (UniProt P46937). Put plainly: co-IP.

B1: NR2F1 (protein, UniProt P10589 1-423)
chain: MAMVVSSWRDPQDDVAGGNPGGPNPAAQAARGGGGGAGEQQQQAGSGAPHTPQTPGQPGAPATPGTAGDKGQGPPGSGQSQQHIECVVCGDKSSGKHYGQFTCEGCKSFFKRSVRRNLTYTCRANRNCPIDQHHRNQCQYCRLKKCLKVGMRREAVQRGRMPPTQPNPGQYALTNGDPLNGHCYLSGYISLLLRAEPYPTSRYGSQCMQPNNIMGIENICELAARLLFSAVEWARNIPFFPDLQITDQVSLLRLTWSELFVLNAAQCSMPLHVAPLLAAAGLHASPMSADRVVAFMDHIRIFQEQVEKLKALHVDSAEYSCLKAIVLFTSDACGLSDAAHIESLQEKSQCALEEYVRSQYPNQPSRFGKLLLRLPSLRTVSSSVIEQLFFVRLVGKTPIETLIRDMLLSGSSFNWPYMSIQCS
Consider B1, for which the binding entry in experiment [1] and in experiment [2] was “no binding” in each case.
